Source: the supplement of paper PMC10735217
Where a name gives a salt, the structure may show the parent alone. The list shows a part of the results. Repeats in this data set agree poorly, so a single value says little.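 The human kidney-derived cells carry a stably integrated construct of eight TEAD-binding elements driving luciferase, read by luminescence in a drug-repurposing library screen. A compound counts as a hit when its signal is more than five robust Z scores above the plate mean.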

System: HEK293A TEAD-LUC reporter
Experiment: TEAD-luciferase reporter activity (YAP activation), robust Z score vs plate; higher = stronger YAP/TEAD activation
Conditions: 24 h

Row | SMILES | TEAD-luciferase reporter activity (compound concentration: 200 nM) | TEAD-luciferase reporter activity (compound concentration: 2 uM) | TEAD-luciferase reporter activity (compound concentration: 10 uM)
1 | Oc1cc2c(cc1O)C(c1ccccc1)CNCC2 (centres undefined) | inactive: 0.69 | inactive: -1.82 | inactive: 2.21
2 | C=C1N(C)C(=O)OC12CCN(CCC=C(c1ccc(F)cc1)c1ccc(F)cc1)CC2 | inactive: 0.41 | inactive: -1.19 | inactive: 1.6
3 | COc1ccc([C@]2(O)CC[C@H](N3CC[C@@H](NC(=O)CNC(=O)c4cccc(C(F)(F)F)c4)C3)CC2)cn1 | inactive: 0.887 | inactive: -0.836 | inactive: -0.56
4 | CCCOc1ccc(CNc2ncnc3nc[nH]c23)cc1OC | inactive: -0.444 | inactive: 0.24 | inactive: -0.511
5 | Cc1c(F)c(N)c2c(=O)cc(-c3ccc(N)c(F)c3)oc2c1F | inactive: -1.78 | inactive: -1.63 | inactive: -1.83
6 | CC(C)[C@@H](NC(=O)[C@@H]1CC[C@@H](O)C1)C(=O)N1CC[C@](O)(c2ccc(Cl)cc2)C(C)(C)C1 | inactive: -0.526 | inactive: 1.66 | inactive: 0.704
7 | Cc1c(S(=O)(=O)O)oc2c1C(=O)C(=O)c1c-2ccc2c1CCCC2(C)C [Sodium tanshi II-A sulfonate] | inactive: -1.49 | – | –
8 | Cc1c(S(=O)(=O)O)oc2c1C(=O)C(=O)c1c-2ccc2c1CCCC2(C)C [Sodium tanshi    II-A sulfonate] | – | inactive: -1.02 | –
9 | Cc1c(S(=O)(=O)O)oc2c1C(=O)C(=O)c1c-2ccc2c1CCCC2(C)C [Sodium tanshi   II-A sulfonate] | – | – | inactive: 1.75
10 | CCNC1(C(N)=O)CCN(c2ncnc3c2nc(-c2ccccc2Cl)n3-c2ccc(Cl)cc2)CC1 [Otenabant hydrochloride] | inactive: 3.4 | inactive: -0.273 | inactive: 3.81
11 | CC(C)NCC(O)COC1c2ccccc2C(=O)N1c1ccccc1 (centres undefined) [nofecainide] | inactive: -2.11 | inactive: -0.792 | inactive: 0.185
12 | OCc1ccccc1/C=C/Cc1cc2c(cc1O)CCO2 | inactive: -0.304 | inactive: -1.42 | inactive: 0.706
13 | COc1cccc(OC)c1-c1cc(C(=O)NC2(C(=O)O)C3CC4CC(C3)CC2C4)nn1-c1ccnc2cc(Cl)ccc12 (centres undefined) [Meclinertant] | inactive: -2.53 | inactive: -1.56 | inactive: 1.28
14 | CC(C)C(N)C(=O)NC(Cc1ccc(O)cc1)C(=O)O (centres undefined) [Val-Tyr sardine peptidase] | inactive: -1.26 | inactive: 0.264 | inactive: 0.62
15 | CC(O)(C(N)=O)c1ccccc1 (centres undefined) | inactive: -1.23 | inactive: -0.623 | inactive: -0.313
